Reference: doi:10.1101/2021.03.15.433877
Results are given in words; binding and its absence hold for the method and conditions named. Some binding calls cover weakened binding; strength is not graded here.

Sequences of proteins named here, by UniProt entry; tags and fusion partners are left off.
UniProt P0DTD8, whole entry: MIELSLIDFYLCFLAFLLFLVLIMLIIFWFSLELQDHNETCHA
UniProt P49069, whole entry: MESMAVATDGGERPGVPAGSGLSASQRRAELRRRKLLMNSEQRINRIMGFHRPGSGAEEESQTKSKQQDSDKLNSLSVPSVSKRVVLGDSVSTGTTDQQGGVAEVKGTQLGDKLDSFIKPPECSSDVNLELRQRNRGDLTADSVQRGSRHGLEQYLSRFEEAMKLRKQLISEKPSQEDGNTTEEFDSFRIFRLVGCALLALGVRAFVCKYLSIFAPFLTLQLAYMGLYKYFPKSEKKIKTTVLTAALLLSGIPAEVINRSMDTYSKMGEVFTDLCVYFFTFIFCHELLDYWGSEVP

Biological target: SARS-CoV-2 ORF7B (SARS-CoV-2) (UniProt P0DTD8)
Assay: two-hybrid

CAMLG (from UniProt P49069 1-296)
binding: binds
